# Substitutions are numbered along the chain they refer to. No constants are given. Whether binding was seen depends on the method and setting. Some entries that bind do so weakly or less than the wild type.
# Sequences of proteins named here, by UniProt entry; tags and fusion partners are left off. Residues count along the entry.
# UniProt P35968, residues 24-326: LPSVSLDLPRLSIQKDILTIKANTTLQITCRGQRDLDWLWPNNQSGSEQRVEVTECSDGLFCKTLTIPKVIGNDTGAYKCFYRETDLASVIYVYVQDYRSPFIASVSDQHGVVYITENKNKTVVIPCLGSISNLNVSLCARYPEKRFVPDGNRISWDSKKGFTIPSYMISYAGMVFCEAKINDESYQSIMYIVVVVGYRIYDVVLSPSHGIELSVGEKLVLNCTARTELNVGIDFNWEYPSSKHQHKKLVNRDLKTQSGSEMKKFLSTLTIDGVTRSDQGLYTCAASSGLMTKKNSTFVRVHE
# UniProt P35916, residues 25-329: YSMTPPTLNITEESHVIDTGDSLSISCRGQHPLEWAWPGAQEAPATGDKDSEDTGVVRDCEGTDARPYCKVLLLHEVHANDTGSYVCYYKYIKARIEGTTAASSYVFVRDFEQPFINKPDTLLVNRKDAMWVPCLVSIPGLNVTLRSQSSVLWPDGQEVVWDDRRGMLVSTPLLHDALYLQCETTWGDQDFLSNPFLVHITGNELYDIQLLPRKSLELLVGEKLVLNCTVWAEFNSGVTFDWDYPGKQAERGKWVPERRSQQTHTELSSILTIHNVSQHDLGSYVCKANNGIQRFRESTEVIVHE
# B1: 72-10 (ligand)
# chain: GQNHHEVVKSIDNEWRKTQCMPREVCIDVGKEFGVATNTFFKPPCVSVYRCGGCCNDEGLECMNTSTSYLSKTLFEITVPLSQGPKPVTISFLQHNKCECRPKKD
# B2: 72-12 (ligand)
# chain: B1 chain with D57S, E61Q
# B3: 72-2 (ligand)
# chain: GQNHHEVVKSIDNEWRKTQCMPREVCIDVGKEFGVATNTFFKPPCVSVYRCGGCCNDEGLECMNTSTSYLSKTLFEIKPHQGQHIGEMSFLQHNKCECRPKKD
# B4: 72-4 (ligand)
# chain: B3 chain with D57S, E61Q
# B5: 22-4 (ligand)
# chain: B3 chain with G1A, Q2H, N3Y, H4N, H5T, V7I, V8L, D57S, E61Q
# B6: 72-8 (ligand)
# chain: B3 chain with D57S, E61Q, L91A, Q92N, N94T, K95S, E97R, R99M, P100S, K102L
# B7: 22-6 (ligand)
# chain: AHYNTEILKSIDNEWRKTQCMPREVCIDVGKEFGVATNTFFKPPCVSVYRCGGCCNDEGLECMNTSTSYLSKTLFEIKPHQGQHIGEMSFANHTSCRCMSKLD
# B8: 22-8 (ligand)
# chain: B7 chain with D57S, E61Q
# B9: 82-15 (ligand)
# chain: AHYNTEILKFMDVYQRSYCHPIETLVDIFQEFGVATNTFFKPPCVSVYRCGGCCNSEGLQCVPTEESNITMQIMRITVPLSQGPKPVTISFANHTSCRCMSKLD
# Molecular target: VEGFR-2-Fc (UniProt P35968)
# Assay: 35S IP, receptor-Fc
row,binding,Binder
1,binds,B1
2,binds,B2
3,binds,B3
4,binds,B4
5,binds,B5
6,binds,B6
7,binds,B7
8,binds,B8
9,binds,B9

# Molecular target: VEGFR-3-Fc (UniProt P35916)
# Assay: 35S IP, receptor-Fc
row,binding,Binder
1,binds,B1
2,binds,B2
3,binds,B3
4,binds,B4
5,binds,B5
6,binds,B6
7,binds,B7
8,binds,B8
9,binds,B9

# Molecular target: VEGFR-2-Fc (UniProt P35968)
# Assay: 35S IP, receptor-Fc, relative signal strength
row,binding,Binder
1,binds,B1

# Molecular target: VEGFR-3-Fc (UniProt P35916)
# Assay: 35S IP, receptor-Fc, relative signal strength
row,binding,Binder
1,binds,B1

# — patent US20020151680A1
